Out of some 320,000 compounds screened, about 22,000 (6.9%) were called active. This list was built around the results that the source calls inconclusive (neither active nor inactive); the mix of calls is not that of the screen. Calls come from the whole dose curve; as a rule, active = well fitted inhibition curve with a large enough effect; inconclusive = small, poorly fitted or top-dose-only effect, or another doubt; inactive = no such curve, though single readings can be large or run the other way. Potencies beside an inconclusive call are fits to weak or partial responses and may not hold up.
Experiment: Primary qHTS for delayed death inhibitors of the malarial parasite plastid, 96 hour incubation
Settings: P. falciparum luciferase reporter growth; series mostly up to 28.7 µM; activity change, negative = inhibition: at the top concentration
How it was run: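 Delayed-death screen, second-generation endpoint: infected erythrocytes, 2% hematocrit, 0.05% parasitemia final; 96 hours at 37 C, 5% CO2; luciferase detection reagent; luminescence decrease equals reduced growth.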
% is set by controls: 0 for no effect and ±100 for the full control effect; potency is the fitted concentration of half-maximal effect.

Structure (SMILES) | Potency | activity change, negative = inhibition
COc1ccc(C2NN=C(c3c[nH]c4ccccc34)C2O)cc1 (centres undefined) | inconclusive: 18.5 µM [inhibitor, single point] | 
CC(C)CC(NC(=O)C(Cc1ccc(OCc2ccccc2)cc1)NC(=O)OC(C)(C)C)C(N)=O (centres undefined) |  | inactive: -18.2%
O=C(c1ccc(Cl)c(S(=O)(=O)N2CCOCC2)c1)N1CCN(c2ccccn2)CC1 | active: 11.7 µM | 
O=C(Cc1ccc(S(=O)(=O)N2CCOCC2)s1)Nc1ccccc1N1CCOCC1 | inconclusive: 18.5 µM [inhibitor, single point] | 
COc1cccc(NC(=O)CSc2nn3c(=O)c(C)nnc3s2)c1 | active: 9.28 µM | 
Cc1cc(C)cc(NC(=O)C2(c3ccccc3)CC2(Cl)Cl)c1 (centres undefined) | active: 2.33 µM | 
COc1ccc(/C(O)=C2/C(=O)C(=O)N(c3ccccn3)C2c2cccc(Cl)c2)cc1 (centres undefined) | inconclusive: 18.5 µM [inhibitor, single point] | 
O=C(COc1ccc(F)cc1F)Nc1cccnc1 |  | inactive: 20.9%
Cc1cc2c(NC(=O)Nc3ccccc3)cccc2nn1 | active: 13.1 µM | 
CCCCc1nc2cc(C(=O)N(C)CCc3cn[nH]c3)ccc2o1 | inconclusive: 18.5 µM [inhibitor, single point] | 
Cc1cccc2sc(NS(C)(=O)=O)nc12 |  | inactive: 12.1%
Cc1cc(NC(=O)C2C3C(=O)N(CCC(C)C)C(C(=O)NCc4ccccc4)C34C=CC2(C)O4)no1 (centres undefined) |  | inactive: 5.27% [at 5.75 µM]
CC(=O)c1ccc(N2CCN(S(=O)(=O)c3ccc4ccccc4c3)CC2)cc1 |  | inactive: 5.48%
O=C(O)c1cc(O)c2c(c1)[C@H]([C@H]1c3cc(C(=O)O)cc(O)c3C(=O)c3c(O[C@@H]4O[C@H](CO)[C@@H](O)[C@H](O)[C@H]4O)cccc31)c1cccc(OC3O[C@H](CO)[C@@H](O)[C@H](O)[C@H]3O)c1C2=O (some centres undefined) |  | inactive: 85.8%
O=C(NCCO)c1cccc2c1C(=O)c1ccccc1-2 |  | inactive: 49.1%
COc1cc(/C=N/NC(=O)C(=O)NCC2CCCO2)ccc1OCC(=O)N1CCOCC1 (centres undefined) | inconclusive: 18.5 µM [inhibitor, single point] | 
Cc1nc2c(-c3ccccc3)c(C)nn2c(C)c1CCC(=O)O |  | inactive: -1.94%
CCCCNC1C(CC)C(CCC)C(C#N)(C#N)C1(C#N)C#N (centres undefined) | inconclusive: 18.5 µM [inhibitor, single point] | 
CCOC(=O)C1=C(COC(=O)c2ccc(Br)o2)NC(=O)NC1C (centres undefined) |  | inactive: 6.72%
Cc1cccc(OC(C)C(=O)Nc2cc(S(=O)(=O)N3CCCCC3)ccc2C)c1 (centres undefined) | inconclusive: 13.1 µM [inhibitor, partial curve, poor fit] | 
Cc1c(C(=O)Nc2ccc(Cl)cn2)oc2ccccc12 | inconclusive: 6.57 µM [inhibitor, partial curve] | 
COc1cccc(C2=NOC(C(=O)Nc3cc(C)on3)C2)c1 (centres undefined) |  | inactive: -6.83%
Cc1cccc(NC(=O)CNC(=O)CN2C(=O)NC3(CCCCC3C)C2=O)c1C (centres undefined) |  | inactive: 49%

Structure (SMILES) | Potency | activity change, negative = inhibition
O=C(NCCN1CCN(c2cccc(Cl)c2)CC1)Nc1ccccc1 | inconclusive: 18.5 µM [inhibitor, single point] | 
CC1CCN(C(=O)COC(=O)CCCN2C(=O)c3cccc4cccc(c34)C2=O)CC1 | inconclusive: 18.5 µM [inhibitor, partial curve, poor fit] | 
CCn1c(C)nc2cc(C(=O)N/N=C/c3cccc(O)c3O)ccc21 | inconclusive: 13.1 µM [inhibitor, partial curve, poor fit] | 
COc1ccc(-c2sc3ccc(N4CCOCC4)cc3c2-c2ccc(OC)c(F)c2)cc1 | active: 6.57 µM | 
CCC1CCCCN1CCCNC(=O)Cn1ncn2nc(-c3ccc(OC)cc3)cc2c1=O (centres undefined) | inconclusive: 18.5 µM [inhibitor, single point] | 
Cc1ccc(Cc2nc3ccccc3[nH]2)cc1 |  | inactive: -28.6%
COc1ccc(OCCCc2c(C)n[nH]c2C)cc1 | active: 9.28 µM | 
COc1cccc(NC(=O)COc2cccc3c2CCNC3=O)c1 | inconclusive: 16.5 µM [inhibitor, single point] | 
O=C(CNC(=O)c1ccco1)OCC(=O)c1ccccc1 | inconclusive: 7.38 µM [inhibitor, partial curve, poor fit] | 
O=C(CCCc1c[nH]c2ccccc12)NCc1ccccc1C(F)(F)F |  | inactive: 48.9%
CCOC(=O)c1ccc(NC(=O)c2nc[nH]c2C(=O)N2CCc3ccccc3C2)cc1 | inconclusive: 11.7 µM [inhibitor, partial curve] | 
N#Cc1ccc(C2=CC(=O)C[C@H](c3ccc(F)cc3)C2)cc1 | inconclusive: 5.86 µM [inhibitor, single point] | 
O=C(NC1CCCC1)C(c1ccncc1)N(C(=O)c1csnn1)c1ccc(F)cc1 (centres undefined) |  | inactive: -11.2%
CN(C)c1ccc(/C=C2\CC3C4CC=C5CC(O)CCC5(C)C4CCC3(C)C2=O)cc1 (centres undefined) | active: 2.33 µM | 
CC(C)COc1cccc(C(=O)N2CCN(C(=O)c3ccco3)CC2)c1 | inconclusive: 18.5 µM [inhibitor, single point] | 
COc1ccc(CN2CN(S(=O)(=O)c3ccccc3)c3nc4ccccc4nc32)cc1 | inconclusive: 18.5 µM [inhibitor, single point] | 
Cc1ccc(C)c(NC(=O)C(NCC(C)(C)N2CCOCC2)c2ccccc2)c1 (centres undefined) | inconclusive: 11.7 µM [inhibitor, single point] | 
Cc1cc2c(N=NC(=O)C3CC3c3ccccc3)c(O)[nH]c2cc1Br (centres undefined) | inconclusive: 11.7 µM [inhibitor, partial curve, poor fit] | 
Cc1ccccc1NC(=O)CNc1ccccc1C(=O)NCc1ccco1 | inconclusive: 11.7 µM [inhibitor, partial curve] | 
S=C(NCc1cccnc1)Nc1ccc(Oc2ccc(Cl)cc2)cc1 |  | inactive: -27.4%
COc1cc(Cl)c(CN2CCCC(CO)(Cc3cccc(Cl)c3)C2)cc1OC (centres undefined) | inconclusive: 14.7 µM [inhibitor, single point] | 
COc1ccc(C(=O)Nc2ccc(C3(C#N)CCCC3)cc2)cc1 | inconclusive: 18.5 µM [inhibitor, single point] | 
Cc1nc(N)sc1C(=O)Nc1ccccc1 | inconclusive: 18.5 µM [inhibitor, single point] | 

Structure (SMILES) | Potency | activity change, negative = inhibition
CC1CCCCN1C(=O)c1cc2c(=O)n3ccccc3nc2s1 (centres undefined) | inconclusive: 1.17 µM [inhibitor, partial curve, poor fit] | 
O=C1N=C(N2CCN(c3ccccc3)CC2)S/C1=C/c1cccs1 | active: 13.1 µM | 
CCCCCCCCCc1ccc(OCCOCCOCCOCCOCCOCCOCCOCCOCCO)cc1 | inconclusive: 16.9 µM [inhibitor, single point] | 
O=CNCCc1nc2ccccc2n1CCc1ccccc1 | inconclusive: 18.5 µM [inhibitor, single point] | 
O=C(C(=O)N1CCOCC1)c1cn(Cc2ccccc2Cl)c2ccccc12 |  | inactive: -8.81%
Cc1cc(C)c2cc3c(N)c(C(=O)N4CCc5ccccc5C4)sc3nc2c1 | inconclusive: 3.29 µM [inhibitor, single point] | 
CCN1C(=O)C(CC(=O)Nc2ccc(OC)cc2)N(CCc2ccccc2F)C1=S (centres undefined) | inconclusive: 2.94 µM [inhibitor, partial curve] | 
O=S1(=O)CC(N2CCOCC2)c2ccccc21 (centres undefined) | inconclusive: 10.4 µM [inhibitor, single point] | 
O=C(Nc1ncccc1O)c1ccc(Cl)c(S(=O)(=O)N2CCCCCC2)c1 | inconclusive: 7.38 µM [inhibitor, partial curve] | 
O=c1oc2cc(OCc3nn[nH]n3)ccc2c2c1CCCC2 | inconclusive: 0.738 µM [inhibitor, full curve] | 
O=[N+]([O-])c1ccc(S(=O)(=O)N2CCN(c3ccc(N4CCOCC4)nn3)CC2)cc1 | inconclusive: 0.657 µM [inhibitor, full curve] | 
O=[N+]([O-])c1ccc2ncnc(Nc3ccc4c(c3)OCCO4)c2c1 | inconclusive: 13.1 µM [inhibitor, single point] | 
COc1ccccc1/C=C/C=N/NC(=O)CC1C(=O)NN=C1C (centres undefined) |  | inactive: 21.4%
Cc1ccc(/C([O-])=C(/C(=S)Nc2ccc(SC(F)F)cc2)[n+]2ccccc2)cc1[N+](=O)[O-] | inconclusive: 11.7 µM [inhibitor, single point] | 
COCCNC(=O)C1CC2Cn3c(nc4cc5ccccc5cc43)C2N1C (centres undefined) | inconclusive: 0.0041 µM [inhibitor, full curve, poor fit] | 
COCCCn1c(SCC(=O)NC(C)C)nnc1-c1ccccc1 | inconclusive: 14.7 µM [inhibitor, single point] | 
Cc1ccc(C(=O)Nc2cc3c(oc2=O)CCCC3=O)cc1 |  | inactive: 226%
COc1ccc(CC(=O)Nc2ccc(S(=O)(=O)NCC3CCCO3)cc2)cc1 (centres undefined) | inconclusive: 18.5 µM [inhibitor, single point] | 
COc1ccc(CNC(=O)c2cccnc2Sc2ccc(C)c(C)c2)cc1 | inconclusive: 20.8 µM [inhibitor, single point] | 
CN(Cc1c(C(=O)N(C)Cc2ccccc2)nc2ccccn12)CC1Cc2ccccc2O1 (centres undefined) | inconclusive: 18.5 µM [inhibitor, single point] | 
Cc1ccc(S(=O)(=O)NCc2ccc(C(=O)NCCN(Cc3ccccc3)C(C)C)cc2)cc1 | inconclusive: 18.5 µM [inhibitor, single point] | 
CCc1cccc(C)c1NS(=O)(=O)Cc1ccccc1 | inconclusive: 14.7 µM [inhibitor, single point] | 
Cc1ccccc1Oc1ccccc1N | inconclusive: 4.15 µM [inhibitor, partial curve, poor fit] | 

Entries shown so far that contain a cyano group:
Structure (SMILES) | Potency | activity change, negative = inhibition
CCCCNC1C(CC)C(CCC)C(C#N)(C#N)C1(C#N)C#N (centres undefined) | inconclusive: 18.5 µM [inhibitor, single point] | 
N#Cc1ccc(C2=CC(=O)C[C@H](c3ccc(F)cc3)C2)cc1 | inconclusive: 5.86 µM [inhibitor, single point] | 
COc1ccc(C(=O)Nc2ccc(C3(C#N)CCCC3)cc2)cc1 | inconclusive: 18.5 µM [inhibitor, single point] | 
